These are yes or no findings as the source states them, for the method shown. A result given as binding can be weak or reduced; the word gives no strength. For part of these data: In cells and extracts the contact can be indirect. For part of these data: Sequences can lack the tags named with a protein.
Columns and labels:
OsJAZ13 (rice) = assay: two-hybrid; each of 13 full-length OsJAZs as BD (bait, left column) and AD (prey, top row) fusion; yeast Y2HGold; growth on SD/-Leu/-Trp/-His/-Ade; graded strong (++), weak (+), undetectable (-)
OsJAZ10 (rice) = assay: as above
OsJAZ4-2 (rice) = assay: as above
OsJAZ11 (rice) = assay: as above
OsJAZ11-cYFP (rice) = assay: split reporter; BiFC: nYFP and cYFP fusions coexpressed in Nicotiana benthamiana (tobacco) leaf epidermal cells by Agrobacterium infiltration; YFP fluorescence by confocal microscopy

Binder	binding (OsJAZ13 (rice))	binding (OsJAZ10 (rice))	binding (OsJAZ4-2 (rice))	binding (OsJAZ11 (rice))	binding (OsJAZ11-cYFP (rice))
OsJAZ4 (protein, UniProt Q6ES51 1-416) MERDFLGAIGKDEEQRRHAEERKESDYFGAGGGAAAAAMDWSFASRAALMSFRSSSSAAAAAAREETRELAFPHFSALDGAKMQQASHVLARQKSFGAESHGIPQYAAAAAVHGAHRGQPPHVLNGARVIPASSPFNPNNPMFRVQSSPNLPNAVGAGGGAFKQPPFAMGNAVAGSTVGVYGTRDMPKAKAAQLTIFYAGSVNVFNNVSPEKAQELMFLASRGSLPSAPTTVARMPEAHVFPPAKVTVPEVSPTKPMMLQKPQLVSSPVPAISKPISVVSQATSLPRSASSSNVDSNVTKSSGPLVVPPTSLPPPAQPETLATTTAAAIMPRAVPQARKASLARFLEKRKERVTTVAPYPLAKSPLESSDTMGSANDNKSSCTDIALSSNRDESLSLGQPRTISFCEESPSTKLQI	binds	binds weakly	binds	–	–
OsJAZ5 (protein, UniProt Q7XV97 1-188) MSTRAPVELDFLGLRAAAADADDRHAKSGGSSASSSSSIRGMETSAIARIGPHLLRRVIAAAGPPPPPSTAPVPEEMPGAAAAAAPMTLFYNGSVAVFDVSHDKAEAIMRMATEATKAKGLARGNAIVGNFAKEPLTRTKSLQRFLSKRKERLTSLGPYQVGGPAAVGATTSTTTKSFLAKEEEHTAS	no binding	binds	binds	binds	–
OsJAZ6 (protein, UniProt Q84R94 1-228) MASAKSGERGSSSFAMACSLLSRYVRQNGAAAGELGLGIRGEADANKGKETMELFPQNSGFGSEAAAVKETPDAREQEKRQLTIFYGGKVLVFDDFPAEKAKDLMQMASKSSSTAQNCVLLPSSATATVADNTKVSAVPAPASALPVAQANAPKPVRPNAADLPQARKASLHRFLEKRKDRLQAKAPYQGSPSDASPVKKELQESQPWLGLGPQVAAPDLSLRQESSQ	no binding	–	binds	binds	–
OsJAZ7 (protein, UniProt Q8H395 1-244) MAASARPVGVGGERATSFAMACSLLSRYVRQNGAAAAELGLGIRGEGEAPRAAPATMSLLPGEAERKKETMELFPQSAGFGQQDAITADSAADAREQEPEKRQLTIFYGGKVLVFNDFPADKAKGLMQLASKGSPVAPQNAAAPAPAAVTDNTKAPMAVPAPVSSLPTAQADAQKPARANASDMPIARKASLHRFLEKRKDRLNAKTPYQASPSDATPVKKEPESQPWLGLGPNAVVKPIERGQ	binds	–	binds	binds	–
OsJAZ9 (protein, UniProt Q8GSI0 1-179) MASTDPMTRRFAVACGVLSQYVKANSSQPSTAAPVAQGVSGLMAAAAAAAAAPVVQEPGCEVDGGGQQFTIFYAGKVVVIDRCTPAMAAELMRFASAAQGGGGAPEAPPALVDMPIARKASLKRFLAKRKATPASARSSYVVRAAAAEEEQPPAKKAKAAVERREDWLALGSLGHMHSR	no binding	binds	binds	no binding	–
OsJAZ12 (protein, UniProt Q7XEZ1 1-171) MAAAGSSSRFAVTCGLLSQYMRERQQPQPPVTVLEAVAEEEEEEDARTMQLFPPRAAAADGVATPSAGTAPLTIFYDGRMVVVDDVPVEKAAELMRLAGSACSPPQPAHAAALPEMPIARKASLQRFLQKRKHRITTTSEPYKKAAVASPAPEKSFAVAPVKDEPATWLGL	no binding	binds	binds	no binding	–
OsJAZ1 (protein, UniProt Q7XPM8 1-216) MDLLEKKNIKKGGEVEEEVARKGEERKEEEVVVEEKSHQQQQQQGEEELVGLSLAGGRPKVFPMSSPPPNPSQLTIFYGGSVCVYDSVPPEKAQAIMLIAAAAAAAASATKSNAAIAVKPPVMPAANATQAAVSPVLTRSLSLQSTSVATGQPQVAADPSSICKLQADLPIARRHSLQRFLEKRRDRLVSKAPYPTKSSEGMEASGMEVTAEGKAQ	no binding	–	no binding	binds	–
OsJAZ3 (protein, UniProt Q6ZJU3 1-427) MERDFLGAIWRKEEAAGKPEEHSDYRGGGGGASAAMQWQFPATKVGAASSAFMSFRSSAAAAREEDPKEAAVFDRFSLSGFRPPPRPSPGDAFDGAAAMKQRQFGFNGRQQYAAAAQHGHREQGVDSYGVAAPHHFPSPSPSPRHPVPFGHANPMLRVHSLPNVAGGSPYRNQSFSVGNSVAGSTVGVYGGPRDLQNPKVTQMTIFYDGLVNVFDNIPVEKAQELMLLASRASIPSPPSAARKSDSPISAAAKLTVPEALPARQIVVQKPEASVPLVSGVSNPITIVSQAVTLPKSFSSSNDSAGPKSGGLPLAVTPLSQASPSQPIPVATTNASAIMPRAVPQARKASLARFLEKRKERVSSVAPYPSSKSPLESSDTIGSPSTPSKSSCTDITPSTNNCEDSLCLGQPRNISFSSQEPPSTKLQI	binds	–	binds	no binding	–
OsJAZ8 (protein, UniProt Q69P94 1-232) MAGRATATATAAGKDRSSFAVTCSLLSQFLKEKKGGGGGLQGLGLGLRPAPAAPPAAGAGGAFRPPPTTMNLLSGLDAPAVEVEPNTAETAADELPLIKAPADQQSDESASEAAGEKAQQLTIFYGGKVVVFENFPSTKVKDLLQIVSTGDGVDKNTGTAATQSLPRPAHNSLPDLPIARRNSLHRFLEKRKGRMNANAPYQANCTAAPSKQANGDKSWLGFGQEMTIKQEI	binds	no binding	no binding	no binding	–
OsJAZ6-nYFP (protein, UniProt Q84R94 1-228) MASAKSGERGSSSFAMACSLLSRYVRQNGAAAGELGLGIRGEADANKGKETMELFPQNSGFGSEAAAVKETPDAREQEKRQLTIFYGGKVLVFDDFPAEKAKDLMQMASKSSSTAQNCVLLPSSATATVADNTKVSAVPAPASALPVAQANAPKPVRPNAADLPQARKASLHRFLEKRKDRLQAKAPYQGSPSDASPVKKELQESQPWLGLGPQVAAPDLSLRQESSQ	–	–	–	–	binds
OsJAZ7-nYFP (protein, UniProt Q8H395 1-244) MAASARPVGVGGERATSFAMACSLLSRYVRQNGAAAAELGLGIRGEGEAPRAAPATMSLLPGEAERKKETMELFPQSAGFGQQDAITADSAADAREQEPEKRQLTIFYGGKVLVFNDFPADKAKGLMQLASKGSPVAPQNAAAPAPAAVTDNTKAPMAVPAPVSSLPTAQADAQKPARANASDMPIARKASLHRFLEKRKDRLNAKTPYQASPSDATPVKKEPESQPWLGLGPNAVVKPIERGQ	–	–	–	–	binds

From paper PMC9103030
